In the supplement of paper PMC4371806:
In all, about 2,300 compounds were measured (“plate-normalized OD600 growth (mean of duplicates)”: median about 0.29, lowest 2% from about 0.22 on). This is one part of the list.

Test system: Escherichia coli BW25113
Test: plate-normalized OD600 growth (mean of duplicates) (OD600 (normalized)); higher = more growth (less inhibition)
Settings: 10 µM
Experimental: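 E. coli BW25113 in LB (100 µl, 96-well, no shaking) was exposed to 10 µM of each compound from a ~30,000-member library and grown at 37°C for 24 h or 15°C for 48 h, in duplicate. Growth was read as OD600 and the duplicate ODs were normalized across screening plates to correct plate-to-plate variation. Hits were >3σ below the mean OD600 at 15°C and <2σ below the mean at 37°C.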

| Compound | plate-normalized OD600 growth (temperature: 15°C, 48 h) | plate-normalized OD600 growth (temperature: 37°C, 24 h) |
| --- | --- | --- |
| O=C(O)CSC1CCS(=O)(=O)C1 (stereo unspecified) | 0.228 | 0.62 |
| COc1ccccc1CNC(=O)C(=O)NC(C)C | 0.231 | 0.616 |
| COc1cccc(NC(=O)CSc2nc3ccccc3o2)c1 | 0.252 | 0.615 |
| Cc1ccc(NC(=O)c2c3c(nc4ccccc24)CCCC3)cc1 | 0.239 | 0.614 |
| CC(C)(C)n1ncc(N/N=C/c2ccc(Cl)cc2)c(Cl)c1=O | 0.238 | 0.605 |
| O=C(COC(=O)c1cccc(N2C(=O)CCC2=O)c1)c1ccccc1 | 0.24 | 0.611 |
| CNS(=O)(=O)c1cc(-c2nnc(Nc3ccc(OC(F)(F)Cl)cc3)c3ccccc23)ccc1C | 0.239 | 0.614 |
| CCOC(=O)c1nnn(-c2nonc2N)c1CN1CCCCCC1 | 0.229 | 0.617 |
| Cn1c(-c2ccccc2)nn(Cn2c(=S)sc3ccccc32)c1=S | 0.251 | 0.61 |
| CC1CCC2(CC1)NC(=O)c1ccccc1N2 (stereo unspecified) | 0.251 | 0.594 |
| CCOc1ccc(S(=O)(=O)NCCC23CC4CC(CC(C4)C2)C3)cc1 | 0.244 | 0.614 |
| O=C(Nc1ccc(Cl)cc1)c1cc(S(=O)(=O)N2CCCCC2)ccc1Cl | 0.247 | 0.658 |
| O=C(Nc1nnc(CSCc2ccccc2)s1)c1ccc(Cl)cc1 | 0.24 | 0.622 |
| O=[N+]([O-])c1ccc(C2CSc3c4ncnc-4ncn32)cc1 (stereo unspecified) | 0.255 | 0.652 |
| CC(C)n1cc(C#N)c(=O)n(Cc2ccccc2)c1=O | 0.246 | 0.622 |
| CCOC(=O)C(C(C)=O)C(c1ccccc1)C(C#N)C#N (stereo unspecified) | 0.24 | 0.614 |
| COc1cc(/C=N/Nc2ccc(Cl)nn2)ccc1O | 0.23 | 0.653 |
| Cc1nn(C)c(C)c1NS(=O)(=O)c1cc(Cl)sc1Cl | 0.228 | 0.663 |
| Cc1ccc(S(=O)(=O)N2CCC(N)=N2)cc1 | 0.255 | 0.661 |
| CC(=O)CC(C)=Nc1ccc(C(F)(F)F)cc1 | 0.243 | 0.611 |
| Cc1c(N)cc(N)cc1NC(=O)c1ccccc1 | 0.254 | 0.61 |
| CCOC(=O)c1cc2c(nc1C)-c1ccccc1C2=Nc1ccc2c(c1)Cc1ccccc1-2 | 0.239 | 0.592 |
| Cc1cc(C=Nc2ccc(Cl)c(O)c2)c(C)n1-c1ccc(Cl)cc1 | 0.248 | 0.605 |
| COc1cc2nc(NC(=O)c3ccc(Cl)cc3)[nH]c(=O)c2cc1OC | 0.252 | 0.607 |
| N#CC1=C2N=C(N)c3c(sc4c3CCCC4)N2C2=C(C(=O)CCC2)C1c1cccnc1 (stereo unspecified) | 0.246 | 0.624 |

Part of the list above, bar-delimited:
Compound | plate-normalized OD600 growth (temperature: 15°C, 48 h) | plate-normalized OD600 growth (temperature: 37°C, 24 h)
Cc1ccc(S(=O)(=O)N2CCC(N)=N2)cc1 | 0.255 | 0.661
CC(=O)CC(C)=Nc1ccc(C(F)(F)F)cc1 | 0.243 | 0.611
Cc1c(N)cc(N)cc1NC(=O)c1ccccc1 | 0.254 | 0.61

Following part.

| Compound | plate-normalized OD600 growth (temperature: 15°C, 48 h) | plate-normalized OD600 growth (temperature: 37°C, 24 h) |
| --- | --- | --- |
| O=C(NC(CO)C(=O)O)c1cncc(O)c1 (stereo unspecified) | 0.217 | 0.636 |
| N#Cc1cc2nc3ccc4ccccc4c3nc2cc1C#N | 0.241 | 0.609 |
| O=[N+]([O-])c1ccc2c(c1)S(=O)(=O)N=C2Nc1cc(Cl)ccc1Cl | 0.251 | 0.626 |
| O=C(O)CSCC(=O)Nc1ccccc1 | 0.216 | 0.64 |
| CCOc1ccc(CCNC(=O)Cn2nnc(-c3ccccc3)n2)cc1OCC | 0.239 | 0.608 |
| O=C1ON=C(CSc2ccccc2)/C1=C/c1ccc(Cl)cc1 | 0.254 | 0.63 |
| O=C(CC(=O)Nc1cccc(Cl)c1)N/N=C\c1ccccc1 | 0.246 | 0.616 |
| CCOc1ccc(NC(=O)CSc2nc(C)cc(COC)c2C#N)cc1 | 0.21 | 0.638 |
| Cc1cc(NC(=NS(=O)(=O)c2ccc(Br)cc2)c2ccccc2)cc(C)c1O | 0.251 | 0.652 |
| CC(=O)C1C2=C(CC(C)(C)CC2=O)OC2=C1C(=O)CC(C)(C)C2 | 0.272 | 0.61 |
| CSc1c(C#N)c(-c2cccs2)nn1C | 0.249 | 0.647 |
| N#Cc1ccc(Oc2ccc(Cl)cc2)nc1 | 0.244 | 0.633 |
| COc1ccc(C=NCCN2Cc3ccccc3C2=O)cc1OC | 0.248 | 0.641 |
| CCC(=O)CSC1=C(C#N)C(c2ccc(Cl)cc2)C(C(C)=O)=C(C)N1 (stereo unspecified) | 0.251 | 0.615 |
| CCSCCSc1nnc2n(N)cnn12 | 0.236 | 0.609 |
| C(=N\Nc1nc(N2CCCCC2)nc(N2CCCCC2)n1)/c1cccnc1 | 0.263 | 0.631 |
| O=C1NCCCC1C(=O)Nc1ccc(NC(=O)C2CCCNC2=O)cc1 (stereo unspecified) | 0.256 | 0.644 |
| COc1ccc(C2(CNC(=O)C(c3ccccc3)c3ccccc3)CCOCC2)cc1OC | 0.249 | 0.611 |
| O=C(CSc1nc2ccc(N=Cc3c4ccccc4cc4ccccc34)cc2s1)NCCOc1ccc(Cl)cc1 | 0.232 | 0.614 |
| COC(=O)c1nnn(-c2nc(N3CCCCC3)nc(N3CCCCC3)n2)c1C | 0.25 | 0.623 |
| COc1ccc(N=C2SCC(=O)N2/N=C/c2ccccc2C(=O)O)cc1 | 0.24 | 0.609 |
| CC(C)CNc1nc(N2CCN(CC3CCCOC3)CC2)ncc1C(=O)NCc1ccccc1 (stereo unspecified) | 0.262 | 0.612 |
| CC(c1ccccc1)n1c(COc2ccccc2)nc2ccccc21 (stereo unspecified) | 0.248 | 0.632 |
| COc1ccc(OC)c(C2CC(=O)c3c([nH]c(C(=O)OC4CCCCCC4)c3C)C2)c1 (stereo unspecified) | 0.244 | 0.612 |
| Cc1cccc(-n2c(C)cc(C=Nc3ccc(Cl)cc3O)c2C)c1 | 0.249 | 0.613 |

| Compound | plate-normalized OD600 growth (temperature: 15°C, 48 h) | plate-normalized OD600 growth (temperature: 37°C, 24 h) |
| --- | --- | --- |
| COc1ccc(CNc2ccccc2)cc1Br | 0.233 | 0.628 |
| C/C(=N/Nc1nnc2c(n1)[nH]c1ccccc12)c1nnn(-c2nonc2N)c1C | 0.251 | 0.61 |
| Cc1nnc(SCC(=O)Nc2ccc(Br)cn2)[nH]c1=O | 0.265 | 0.63 |
| CCOc1ccc(S(=O)(=O)N2CCN(c3ccc(C)cc3C)CC2)c2ccccc12 | 0.222 | 0.631 |
| CCN(C(=S)NCc1ccccc1)C1CCCCC1 | 0.224 | 0.611 |
| CCOc1ccc(CC(=O)C2C(=O)CCCC2=O)cc1OCC | 0.234 | 0.606 |
| CN(CCOC(=O)/C=C/c1ccccc1)C1=NS(=O)(=O)c2ccccc21 | 0.249 | 0.611 |
| O=C(Cn1nc(-c2ccccc2)nc1-c1ccccc1)N1CCCc2ccccc21 | 0.256 | 0.609 |
| O=C(NC(=S)Nc1ccc(Cc2ccncc2)cc1)c1cccc2ccccc12 | 0.259 | 0.614 |
| Nn1c(CSc2nc3ccccc3s2)nnc1CSc1nc2ccccc2s1 | 0.228 | 0.626 |
| O=C1CC(c2ccccc2)=NO1 | 0.243 | 0.607 |
| O=C(/C=C/c1cccs1)C(C(=O)c1ccccc1)=C1SCCCCS1 | 0.244 | 0.615 |
| CCc1ccc(NC(=O)CCC(=O)N/N=C/c2cccc(Cl)c2)cc1 | 0.263 | 0.616 |
| CCc1nc2ccccc2c(C(=O)Nc2cccc(Cl)c2)c1C | 0.251 | 0.638 |
| CCCCCCCCNC(=O)C(=O)Nc1cccc(F)c1 | 0.244 | 0.564 |
| COC(=O)CCCCCCCC(=O)Nc1ccc(Cl)cc1 | 0.262 | 0.613 |
| FC(F)(F)c1nnc2ccc(Cl)nn12 | 0.252 | 0.614 |
| O=C1/C(=C/c2ccc(Cl)cc2)C=C(c2ccccc2)N1c1ccc2ccccc2c1 | 0.233 | 0.633 |
| S=c1sc2ccccc2n1/C(=N/Nc1ccccc1)c1ccccc1 | 0.246 | 0.619 |
| CCC(=O)NC1(C(F)(F)F)C(=O)Nc2c1c(=O)n(C)c(=O)n2C (stereo unspecified) | 0.255 | 0.632 |
| COc1cc(Cl)c(S(=O)(=O)NCCc2c(C)[nH]c3ccc(Br)cc23)cc1Cl | 0.24 | 0.625 |
| NN1Nc2cc(S(N)(=O)=O)ccc2O1 | 0.242 | 0.618 |
| CCCS(=O)(=O)c1c(S(=O)(=O)CCC)c2ccccn2c1C(=O)c1ccc(F)cc1 | 0.234 | 0.622 |
| CCCCCCCCN1C2=C(C(=O)CC(C)(C)C2)C(c2ccccc2)C2=C1CC(C)(C)CC2=O | 0.293 | 0.639 |
| Fc1cccc(Cl)c1-c1nnc2ccc(N3CCOCC3)nn12 | 0.224 | 0.614 |

| Compound | plate-normalized OD600 growth (temperature: 15°C, 48 h) | plate-normalized OD600 growth (temperature: 37°C, 24 h) |
| --- | --- | --- |
| Clc1cncc(Cl)c1N/N=C\C1CC2C=CC1C2 (stereo unspecified) | 0.25 | 0.612 |
| COCCCN1C(=O)c2cccc3c(N)ccc(c23)C1=O | 0.241 | 0.621 |
| O=C(Cn1nnc(-c2ccccc2)n1)N(c1ccccc1)c1ccc2ccccc2c1 | 0.233 | 0.628 |
| Cc1ccc(N(C)C(=S)Nc2ccc3nc[nH]c(=O)c3c2)cc1C | 0.237 | 0.625 |
| COc1ccccc1N1CCN(C(=O)c2cc3nc4c(c(C(F)(F)F)n3n2)CCc2ccccc2-4)CC1 | 0.228 | 0.606 |
| CN(C)c1nc2ccccc2n1N | 0.237 | 0.609 |
| CC(=O)CC(=O)Nc1ccccc1Cl | 0.286 | 0.62 |
| Cc1cc(/C=N/NC(=O)c2cc3ccccc3o2)c(C)n1-c1ccc(C23CC4CC(CC(C4)C2)C3)cc1 | 0.244 | 0.607 |
| COc1ccc(OC)c(S(=O)(=O)Oc2ccc(C#N)cc2)c1 | 0.245 | 0.618 |
| CCOC(=O)c1cccc(-c2ccc(/C=N/N3C(=O)C4C5C=CC(CC5)C4C3=O)o2)c1 (stereo unspecified) | 0.238 | 0.64 |
| N#CC1C(=O)NC(=O)C(C(=O)S)C12CCCCC2 (stereo unspecified) | 0.252 | 0.603 |
| CN1CCCC12NCCc1c2[nH]c2ccccc12 (stereo unspecified) | 0.28 | 0.647 |
| O=C(COC(=O)c1ccc(Oc2ccc(O)cc2)cc1)c1ccccc1 | 0.235 | 0.61 |
| O=C(O)C1CCCCC1C(=O)NCc1cccnc1 (stereo unspecified) | 0.258 | 0.608 |
| CSC1=C(C#N)C(c2ccc(C(C)C)cc2)CC(=O)N1 (stereo unspecified) | 0.245 | 0.611 |
| O=C(CNC(=O)C(c1ccccc1)c1ccccc1)N/N=C/c1ccc(-c2ccc(Cl)c(Cl)c2)o1 | 0.238 | 0.611 |
| CCOC(=O)COc1ccc(/C=C(\C#N)c2nc3ccccc3[nH]2)cc1OC | 0.24 | 0.607 |
| CC(C)=NNc1nc(-c2cc3ccccc3oc2=O)cs1 | 0.234 | 0.589 |
| CCOC(=O)c1c(C)n(C)c2ccc(OCC)cc12 | 0.256 | 0.61 |
| CCc1nc(N)c(C#N)c(-c2ccccc2)c1C | 0.239 | 0.61 |
| CC1=C(C#N)C(c2c(C)[nH]n(-c3ccccc3)c2=O)(C(F)(F)F)C(=O)N1 (stereo unspecified) | 0.26 | 0.62 |
| O=C1CCC(=O)N1CN1CCc2ccccc2C1 | 0.238 | 0.611 |
| Cc1[nH]c2c(Cl)cccc2c1CCNS(=O)(=O)c1ccc(C(C)(C)C)cc1 | 0.227 | 0.623 |

In a second layout: 5 of the compounds above
Compound | plate-normalized OD600 growth (temperature: 15°C, 48 h) | plate-normalized OD600 growth (temperature: 37°C, 24 h)
Cc1nnc(SCC(=O)Nc2ccc(Br)cn2)[nH]c1=O | 0.265 | 0.63
CCOc1ccc(S(=O)(=O)N2CCN(c3ccc(C)cc3C)CC2)c2ccccc12 | 0.222 | 0.631
CCN(C(=S)NCc1ccccc1)C1CCCCC1 | 0.224 | 0.611
CCOc1ccc(CC(=O)C2C(=O)CCCC2=O)cc1OCC | 0.234 | 0.606
CN(CCOC(=O)/C=C/c1ccccc1)C1=NS(=O)(=O)c2ccccc21 | 0.249 | 0.611
